These are yes or no findings as the source states them, for the method shown. Binding seen in cells or lysates may run through a third protein. Some entries that bind do so weakly or less than the wild type.
Molecular target: p300 (mouse (endogenous in mouse VSMCs)) (UniProt B2RWS6)
Experiment: co-IP; lysates of mouse VSMCs (transfected with ASO-Gm40097, pcDNA-Gm40097 or controls for 24 h, treated or not with AngII for 24 h) immunoprecipitated with anti-Ythdc1, anti-p300 or anti-Klf5 and immunoblotted for Ythdc1, p300 and Klf5

By UniProt entry, the sequences of proteins in these tests, tags left out.
UniProt B2RWS6: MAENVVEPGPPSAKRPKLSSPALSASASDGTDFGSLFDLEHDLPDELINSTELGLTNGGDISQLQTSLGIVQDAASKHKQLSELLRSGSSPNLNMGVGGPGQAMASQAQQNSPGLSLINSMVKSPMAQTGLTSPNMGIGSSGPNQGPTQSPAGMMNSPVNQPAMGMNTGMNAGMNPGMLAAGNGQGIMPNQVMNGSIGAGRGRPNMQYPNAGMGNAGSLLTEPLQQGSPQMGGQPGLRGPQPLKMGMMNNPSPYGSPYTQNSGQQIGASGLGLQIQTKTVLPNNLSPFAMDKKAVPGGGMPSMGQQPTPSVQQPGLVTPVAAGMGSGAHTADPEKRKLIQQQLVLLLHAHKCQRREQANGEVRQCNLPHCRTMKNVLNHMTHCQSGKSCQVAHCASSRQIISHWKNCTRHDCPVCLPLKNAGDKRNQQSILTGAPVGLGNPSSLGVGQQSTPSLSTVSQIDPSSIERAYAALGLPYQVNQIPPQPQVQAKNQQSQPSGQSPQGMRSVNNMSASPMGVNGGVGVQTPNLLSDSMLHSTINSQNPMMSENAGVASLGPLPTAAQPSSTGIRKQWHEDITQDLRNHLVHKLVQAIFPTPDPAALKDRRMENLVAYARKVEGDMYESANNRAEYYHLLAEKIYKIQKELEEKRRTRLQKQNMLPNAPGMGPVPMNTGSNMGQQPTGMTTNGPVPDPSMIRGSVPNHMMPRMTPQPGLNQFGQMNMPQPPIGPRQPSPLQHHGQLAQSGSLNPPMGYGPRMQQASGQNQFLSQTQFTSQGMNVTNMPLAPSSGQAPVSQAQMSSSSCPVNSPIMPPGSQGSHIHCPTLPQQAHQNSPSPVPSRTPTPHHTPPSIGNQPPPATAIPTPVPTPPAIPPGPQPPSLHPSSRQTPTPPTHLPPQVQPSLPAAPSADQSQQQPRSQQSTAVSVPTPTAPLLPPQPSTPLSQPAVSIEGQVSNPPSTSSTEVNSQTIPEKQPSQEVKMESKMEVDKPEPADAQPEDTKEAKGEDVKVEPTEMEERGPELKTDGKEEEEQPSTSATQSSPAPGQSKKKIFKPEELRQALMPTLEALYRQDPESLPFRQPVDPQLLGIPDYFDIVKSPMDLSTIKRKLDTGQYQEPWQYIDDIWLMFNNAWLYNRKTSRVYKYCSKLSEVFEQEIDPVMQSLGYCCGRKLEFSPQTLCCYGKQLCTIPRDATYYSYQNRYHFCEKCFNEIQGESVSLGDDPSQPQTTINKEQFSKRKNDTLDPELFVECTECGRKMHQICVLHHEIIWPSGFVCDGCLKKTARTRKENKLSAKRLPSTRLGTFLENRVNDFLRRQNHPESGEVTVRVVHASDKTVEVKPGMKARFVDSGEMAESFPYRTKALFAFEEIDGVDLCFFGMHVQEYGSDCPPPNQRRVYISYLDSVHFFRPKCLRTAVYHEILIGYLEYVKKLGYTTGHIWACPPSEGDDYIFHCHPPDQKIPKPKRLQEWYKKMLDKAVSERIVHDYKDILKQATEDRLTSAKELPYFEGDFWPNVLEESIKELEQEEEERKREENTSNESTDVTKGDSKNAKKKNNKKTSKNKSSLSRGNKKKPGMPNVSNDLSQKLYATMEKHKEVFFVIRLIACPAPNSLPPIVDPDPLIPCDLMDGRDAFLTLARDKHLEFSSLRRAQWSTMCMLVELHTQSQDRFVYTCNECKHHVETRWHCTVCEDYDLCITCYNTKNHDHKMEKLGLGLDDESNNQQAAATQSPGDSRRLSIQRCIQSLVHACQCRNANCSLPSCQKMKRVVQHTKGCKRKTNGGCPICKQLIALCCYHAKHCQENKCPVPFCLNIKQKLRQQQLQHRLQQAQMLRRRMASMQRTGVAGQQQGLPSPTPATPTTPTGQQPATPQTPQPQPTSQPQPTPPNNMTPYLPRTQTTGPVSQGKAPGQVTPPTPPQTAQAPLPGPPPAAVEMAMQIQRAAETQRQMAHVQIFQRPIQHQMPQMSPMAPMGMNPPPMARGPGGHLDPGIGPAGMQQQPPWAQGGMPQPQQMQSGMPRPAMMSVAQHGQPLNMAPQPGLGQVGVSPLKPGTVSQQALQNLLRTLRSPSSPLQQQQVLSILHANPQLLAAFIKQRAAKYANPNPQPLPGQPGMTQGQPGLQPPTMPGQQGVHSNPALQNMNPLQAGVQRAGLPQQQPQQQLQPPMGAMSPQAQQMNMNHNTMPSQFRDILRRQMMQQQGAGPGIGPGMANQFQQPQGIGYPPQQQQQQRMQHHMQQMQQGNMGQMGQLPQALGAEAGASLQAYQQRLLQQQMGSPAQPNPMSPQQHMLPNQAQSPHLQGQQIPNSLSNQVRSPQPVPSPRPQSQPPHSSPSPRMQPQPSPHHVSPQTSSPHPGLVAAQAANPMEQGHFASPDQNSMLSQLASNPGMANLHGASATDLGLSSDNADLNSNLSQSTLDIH
UniProt Q9Z0Z7: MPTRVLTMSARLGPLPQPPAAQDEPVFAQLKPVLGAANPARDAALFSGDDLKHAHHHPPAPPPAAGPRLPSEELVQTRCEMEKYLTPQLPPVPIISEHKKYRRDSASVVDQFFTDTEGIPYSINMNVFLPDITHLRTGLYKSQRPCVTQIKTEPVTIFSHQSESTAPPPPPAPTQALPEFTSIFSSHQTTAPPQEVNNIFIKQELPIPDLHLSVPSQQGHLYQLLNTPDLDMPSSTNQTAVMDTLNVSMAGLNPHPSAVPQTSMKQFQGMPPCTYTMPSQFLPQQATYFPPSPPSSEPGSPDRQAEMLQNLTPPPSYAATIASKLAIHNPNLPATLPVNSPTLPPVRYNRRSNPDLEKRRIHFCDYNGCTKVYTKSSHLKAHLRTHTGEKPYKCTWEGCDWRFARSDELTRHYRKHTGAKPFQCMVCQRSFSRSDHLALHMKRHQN

binding: binds
Substance: Krüppel‐like zinc‐finger transcription factor Klf5 (from UniProt Q9Z0Z7 1-446)

Source: article PMC12822387
